PubChem BioAssay AID686937 – Drosophila RNAi Screening Center – 2013
Assay: 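Genes whose loss weakens secretory pathway function in fly cells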 (primary screen). Cells: Drosophila S2 cells expressing secreted horseradish peroxidase. Reagent: long dsRNA against Drosophila genes. Duration: about 5.5 days (5 days dsRNA, then 12 h reporter induction). Treatment: reporter expression induced after 5 days of dsRNA, read 12 h later; inducer not stated. Measured: 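After 5 days of dsRNA and 12 h of reporter induction, medium peroxidase read by chemiluminescence and scored as per-plate z-score; higher values mean more reporter released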. Reading the numbers: z-score: higher = more reporter secreted into medium.
The screen tested about 23,000 reagents; shown is an unselected part of those that have a named target and a result. 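Reduced-secretion tags in replicate 1 do not always agree with the z-scores; no criterion for assigning the tags was given.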 Reagents against one gene are numbered here. A plus sign joins genes that one reagent is predicted to hit. The record does not give: the amount of reagent.

Gene	reagent	z-score, replicate 1	z-score, replicate 2	z-score, replicate 3	z-score, replicate 4	phenotype, replicate 1
Tbp	1	-5.11	-3.41			reduced secretion
gig	1	0.53	0.35			
CG31099	1	0.39	0.31			
Pka-C1	1	0.07	0.35			
CG6380	1	-0.18	0.17			
HipHop	1	0.23	0.39			
Jon99Cii	1	0.16	0.03			
Jon99Cii	2	-0.55	0.16			
COX8	1	-0.23	-0.57			
Not10	1	0.34	0.33			
Tim13	1	0.3	0.28			
Syb	1	0.15	0.08			
Caf1-55	1	0.42	0.2			
CG14606	1	0.19	0.42			
CG34348	1	0.1	0.3			
CG34348	2	0.18	0.29			
Spn43Aa	1	0.19	0.33			
Act42A	1	0.04	-0.06			
CG1951	1	0.13	0.53			
CG15673	1	0.01	0.24			
SF1	1	-0.67	-0.82			
Cyp6v1	1	-0.41	0.09			
CG12158	1	-0.07	-0.29			
Pex16	1	0.19	0.12			
CG9107	1	0.18	0.17			
CG14669	1	-4.26	-0.82			reduced secretion
CG14669	2	0.31	-0.22			
CG14669	3	0.73	0.34			
CG14669	4	-0.24	0.65			
CG30281	1	0.29	0.35			
CG4884	1	0.31	0.58			
dlp	1	-0.46	-0.39			
dlp	2	0.44	0.46			
CG8366	1	0.43	0.31			
CG17633	1	0.17	0.12			
CG15870	1	0.12	0.1			

The list goes on; the last 10 above are carried over.
Gene	reagent	z-score, replicate 1	z-score, replicate 2	z-score, replicate 3	z-score, replicate 4	phenotype, replicate 1
CG14669	2	0.31	-0.22			
CG14669	3	0.73	0.34			
CG14669	4	-0.24	0.65			
CG30281	1	0.29	0.35			
CG4884	1	0.31	0.58			
dlp	1	-0.46	-0.39			
dlp	2	0.44	0.46			
CG8366	1	0.43	0.31			
CG17633	1	0.17	0.12			
CG15870	1	0.12	0.1			
zye	1	0.3	0.16			
CG4613	1	0.56	0.17			
ICA69	1	0.29	0.35			
CG3104	1	0.09	0.08			
myd	1	-0.72	-1.37			
myd	2	0.31	0.41			
CG12643	1	0.16	0.16			
CG32271	1	0.12	0.14			
CG11317	1	0.22	-0.17			
Coprox	1	0.4	0.14	0.3	0.54	
BORCS6	1	0.29	0.26			
RpL34b	1	-1.62	-0.46			reduced secretion
Zir	1	0.34	0.51			
gudu	1	0.3	0.19			
CG17470	1	-7.51	0.33			reduced secretion
betaNACtes4	1	0.46	0.47			
CG33309	1	0.53	0.17			
Sumo	1	-3.37	-3.41			reduced secretion
CG5554	1	0.24	0.37			
CG9410 + CG15908	1	-0.05	-0.18			
CG9410 + CG15908	2	0.2	0.28			
CG31326	1	-0.42	0.37			
CG15642	1	0.21	0.57			
park	1	0.09	0.03			
qua	1	0.18	0.45			
CG32603	1	0.52	0.56			
CG32603	2	-0.05	0.15			
CG4324	1	0.58	0.16			
CG13676	1	0.41	-0.01			
YME1L	1	-0.1	-0.19			
Anp	1	0.33	0.39			
Hsf	1	0.24	0.31			
eg	1	0.23	0.48			
Vha16-1	1	-1.72	-2.17			reduced secretion
Sfmbt	1	0.85	0.5			
hubl	1	0.17	0.29			
Tcs6 + PIG-P	1	-0.72	0.16			
Tcs6 + PIG-P	2	0.26	0.03			
CG9646	1	0.22	0.23			
Mms19	1	0.38	0.51			
rhea	1	0.19	0.17			
Cht7	1	0.23	0.03			
Cht7	2	-0.05	-0.59			
Femcoat	1	0.3	0.01			
Syx1A	1	-0.68	-1.08			
Syx1A	2	-1.65	-0.68			reduced secretion
